This passage reports binding results from PMC6800368, “Rotational symmetry of the structured Chip/LDB-SSDP core module of the Wnt enhanceosome” (Proceedings of the National Academy of Sciences of the …, 2019).

By UniProt entry, the sequences of proteins in these tests, tags left out. Where a name states a change or a piece, a line headed by the entry shows the natural chain unless it says otherwise.
UniProt Q7KVG9: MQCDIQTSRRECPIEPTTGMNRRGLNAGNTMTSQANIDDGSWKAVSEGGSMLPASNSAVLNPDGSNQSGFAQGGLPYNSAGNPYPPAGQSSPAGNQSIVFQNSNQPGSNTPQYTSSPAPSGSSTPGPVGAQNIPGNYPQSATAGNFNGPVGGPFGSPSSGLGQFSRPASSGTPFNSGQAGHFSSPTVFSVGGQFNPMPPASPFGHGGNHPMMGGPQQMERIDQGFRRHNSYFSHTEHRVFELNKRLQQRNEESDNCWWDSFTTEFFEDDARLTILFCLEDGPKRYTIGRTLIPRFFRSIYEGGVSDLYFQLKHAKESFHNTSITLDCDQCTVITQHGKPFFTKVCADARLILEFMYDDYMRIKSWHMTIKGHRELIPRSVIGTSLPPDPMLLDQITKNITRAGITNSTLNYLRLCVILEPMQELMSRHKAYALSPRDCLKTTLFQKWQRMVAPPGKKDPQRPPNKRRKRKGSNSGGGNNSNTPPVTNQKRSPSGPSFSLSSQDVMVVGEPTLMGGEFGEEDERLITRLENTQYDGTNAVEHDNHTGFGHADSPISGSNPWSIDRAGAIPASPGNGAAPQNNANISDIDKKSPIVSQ

No constants are given. Whether binding was seen depends on the method and setting. Binding seen in cells or lysates may run through a third protein. Binding can be weak; no strength is given. Where a sequence is shown, tags or fusion partners need not be part of it.

Test [1] deals with Chip-V5FLAG with a double mutation in α7 (Drosophila) (UniProt Q7KVG9). Nature of the test: co-IP; Chip-V5FLAG (WT or mutant) coexpressed with SSDP-V5 (WT or mutant) in HEK293T cells.
The target in test [2] is Chip-V5FLAG Δα7 (Drosophila) (UniProt Q7KVG9). The test is described as above.

B1: SSDP-V5 (protein, UniProt Q9VEB9 1-445)
chain: MYGKSKTSAVPSDAQAREKLALYVYEYLLHVGAQKAAQTFLSEIRWEKNITLGEPPGFLHTWWCVFWDLYCAAPERRDQCDHSSEAKAFHDYGFVSSGYGVNGIGPGGPHNAGGPAPSPLGQMPPGGDGGPMGPGGPMGPNFFPNSTMRPSPPTHASSPQPPPSQMMPGQPPFMGGPRYPGGPRPGVRMQGMGNEFNGPPGQPMMPNSMDPTRPGGGMGPMNPRMNPPRGPGGMGPMGYGGPGGMRGPAPGPGGMPPMGMGGAGGRPPQWQPNASAPLNAYSSSSPGNYGPGSNGPPGPGTPIMPSPQDNTQGGPVGGPGDSMYALMKPEFPMGGGPDGGGGGGGPGGMGPMGGGPNSMGPVLNGGGGPDGSGLDGMKNSPANGGPGTPREDSGSGMGDYNLGGFGGPGENDQTESAAILKIKESMHEEAKRFEKDTDHPDYFMP
For the molecule B1, the binding entry in test [1] and in test [2] was “binds” throughout.
